Measurements reported in patent publication US7517874B2 (priority 2007, dated 2009).
At least one structure is not confirmed: it was looked up by name or label, or the drawing left a doubt.

Target: T1, rat CB2 receptor (rCB2) (Rattus norvegicus, UniProt Q9QZN9)
T1 sequence (Q9QZN9 1-360): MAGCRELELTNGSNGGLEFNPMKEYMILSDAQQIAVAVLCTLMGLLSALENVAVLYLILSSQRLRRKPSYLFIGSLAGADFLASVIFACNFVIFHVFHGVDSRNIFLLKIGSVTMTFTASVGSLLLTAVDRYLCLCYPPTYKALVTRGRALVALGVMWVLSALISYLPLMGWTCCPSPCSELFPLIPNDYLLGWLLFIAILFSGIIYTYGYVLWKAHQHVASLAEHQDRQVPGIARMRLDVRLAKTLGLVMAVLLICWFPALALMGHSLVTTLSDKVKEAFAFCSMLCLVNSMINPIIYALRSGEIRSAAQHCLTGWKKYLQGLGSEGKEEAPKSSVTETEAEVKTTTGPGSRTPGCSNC
Format: cell-based
Conditions: agonist or inverse agonist at rCB2
Procedure: The ability of compounds to act as agonists or inverse agonists at human CB2 and CB1 receptors (hCB2, hCB1, respectively) and at the rat CB2 receptor (rCB2) was determined by measuring changes in intracellular cAMP levels. Chinese Hamster Ovary (CHO-K1) cell lines stably expressing hCB2 (Genebank: X74328) or hCB1 (Genebank: X54937) were purchased from Euroscreen (Gosselies, Belgium). The rat CB2 receptor was expressed from genomic DNA (provided by M. Abood, California Pacific Medical Center) in CHO-K1 cells from expression plasmid vector, pcDNA3.1. […]
Receptor mediated responses were determined by measuring changes in intracellular cAMP using LANCE cAMP detection kit (cat #AD0264, Perkin Elmer, Wellesley, Mass.) based on time-resolved fluorescence resonance energy transfer (TR-FRET). Changes in cAMP were determined in cells pre-incubated with IBMX (isobutyl methylxanthine) and prestimulated with NKH-477 (a water soluble forskolin derivative, cat #1603, Tocris, Ellisville, Mo.) to increase basal cAMP levels as detailed below.
On the day of the experiment, cells were spun at low speed for 5 min at room temperature. […] The reagents were allowed to equilibrate for three hours prior to reading on an Envision multi-mode detector (Perkin-Elmer). TR-FRET was measured using a 330-380 nm excitation filter, a 665 nm emission filter, dichroic mirror 380 nm and Z=1 mm. […]

Row | SMILES | +/− RCB2
1 | CNC(=O)[C@H](C)NC(=O)c1nc(-c2ccccc2)n2c1CN(C)CC2 [Compound 78, (S)-7-methyl-N-(1-(methylamino)-1-oxopropan-2-yl)-3-phenyl-5,6,7,8-tetrahydroimidazo[1,5-a]pyrazine-1-carboxamide] | −
2 | CC(C)(CO)CNC(=O)c1nc(-c2ccccc2)n2c1CN(CC1CC1)CC2 [Compound 83, 7-(cyclopropylmethyl)-N-(3-hydroxy-2,2-dimethylpropyl)-3-phenyl-5,6,7,8-tetrahydroimidazo[1,5-a]pyrazine-1-carboxamide] | −
